{
  "sequences": {"note": "Chains of the proteins cited; added tags and fusions are not shown.", "UniProt P13569, whole entry": "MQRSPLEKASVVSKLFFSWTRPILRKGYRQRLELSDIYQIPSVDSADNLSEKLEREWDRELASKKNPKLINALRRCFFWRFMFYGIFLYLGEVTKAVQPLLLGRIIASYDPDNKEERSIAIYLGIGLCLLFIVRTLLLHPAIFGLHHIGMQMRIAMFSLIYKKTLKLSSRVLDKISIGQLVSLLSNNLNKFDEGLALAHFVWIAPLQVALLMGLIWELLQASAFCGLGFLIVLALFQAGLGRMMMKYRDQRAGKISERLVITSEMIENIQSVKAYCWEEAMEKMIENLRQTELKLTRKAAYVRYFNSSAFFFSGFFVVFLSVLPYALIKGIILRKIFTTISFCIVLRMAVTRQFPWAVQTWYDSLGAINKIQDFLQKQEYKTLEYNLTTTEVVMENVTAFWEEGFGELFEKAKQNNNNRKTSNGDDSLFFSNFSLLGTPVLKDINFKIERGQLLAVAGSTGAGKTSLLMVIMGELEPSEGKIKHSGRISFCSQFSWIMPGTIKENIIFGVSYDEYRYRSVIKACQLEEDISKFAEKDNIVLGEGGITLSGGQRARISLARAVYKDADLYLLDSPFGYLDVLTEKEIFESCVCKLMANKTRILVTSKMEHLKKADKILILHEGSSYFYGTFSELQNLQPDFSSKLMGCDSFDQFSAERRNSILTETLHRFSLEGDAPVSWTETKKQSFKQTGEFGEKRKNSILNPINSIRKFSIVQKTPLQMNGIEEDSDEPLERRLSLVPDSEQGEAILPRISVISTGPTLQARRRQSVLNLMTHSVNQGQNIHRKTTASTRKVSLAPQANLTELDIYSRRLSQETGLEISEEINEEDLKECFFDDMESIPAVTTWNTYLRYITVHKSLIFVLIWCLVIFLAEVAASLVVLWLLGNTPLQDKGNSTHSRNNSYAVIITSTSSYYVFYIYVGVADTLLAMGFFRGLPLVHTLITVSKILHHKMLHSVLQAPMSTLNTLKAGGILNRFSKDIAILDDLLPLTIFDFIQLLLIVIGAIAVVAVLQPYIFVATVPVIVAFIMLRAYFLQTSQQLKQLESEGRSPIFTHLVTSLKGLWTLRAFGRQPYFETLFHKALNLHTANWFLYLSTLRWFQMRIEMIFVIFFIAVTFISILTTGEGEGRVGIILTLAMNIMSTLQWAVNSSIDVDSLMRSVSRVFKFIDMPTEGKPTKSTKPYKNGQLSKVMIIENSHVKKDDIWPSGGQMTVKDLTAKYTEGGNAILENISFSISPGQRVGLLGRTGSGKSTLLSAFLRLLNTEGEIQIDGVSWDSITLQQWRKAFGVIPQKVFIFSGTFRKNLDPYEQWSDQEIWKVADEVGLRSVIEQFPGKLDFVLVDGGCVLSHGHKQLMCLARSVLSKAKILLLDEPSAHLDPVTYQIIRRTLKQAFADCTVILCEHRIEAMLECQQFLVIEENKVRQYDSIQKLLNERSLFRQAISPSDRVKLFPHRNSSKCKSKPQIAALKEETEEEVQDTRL"},
  "source": "patent US7314614B1",
  "about": "“Recombinant sendai virus vector for introducing exogenous genes to airway epithelia” (priority 1999, dated 2008)",
  "target": "T1, CFTR (Homo sapiens, UniProt P13569)",
  "T1 construct": "expressed in transfected cells; host or cells: COS7 cells infected with the recombinant Sendai virus SeV/CFTR (CFTR cDNA in the NotI site of pSeV18+b(+))",
  "assay": "Whole-cell patch clamp of COS7 cells infected with CFTR-expressing Sendai virus",
  "format": "cell-based",
  "settings": "COS7 cells expressing sample-1 SeV/CFTR (FIG. 15)",
  "method": "COS7 cells were infected with the prepared CFTR-expressing Sendai virus (sample-1 SeV/CFTR), and the obtained infected cells were analyzed by the whole-cell patch clamp technique. […] A glass pipette containing a pipette solution was contacted with a cell within a bath solution, and negative pressure was applied to remove the cell membranes. In this occasion, the pipette solution contains 145 mM NMDG^+, 148.4 mM Cl^−, […], 5 mM ATP, 10 mM glucose, 0.1 mM EGTA, and 10 mM HEPES (titrated by Tris, pH 7.4), and the bath solution contains 141 mM Na^+, 152.4 mM Cl^−, […], 5 mM K^+, 1.7 mM Mg^2+, 2 mM Ca^2+, 10 mM glucose, 0.1 mM EGTA, and 10 mM HEPES (titrated by Tris, pH 7.4). The effects of forskolin on the membrane current in COS7 cells expressing sample-1 SeV/CFTR were examined by whole-cell recording (FIG. 14). […] The influx current was reproduced by adding forskolin again after a single wash, and was again suppressed by glibenclamide, which confirmed that the observed change in current was a specific drug-induced response.",
  "note": "At least one structure is not confirmed: it was looked up by name or label, or the drawing left a doubt.",
  "data": [
    {"smiles": "C=C[C@@]1(C)CC(=O)[C@]2(O)[C@@]3(C)[C@@H](O)CCC(C)(C)[C@@H]3[C@H](O)[C@H](OC(C)=O)[C@@]2(C)O1", "note": "[Forskolin]", "values": [
      {"measurement": "effect of forskolin on Cl− current", "value": "induced a Cl^− current"}
    ]}
  ]
}
